These results are taken from patent US8575188B2 (priority 2009, dated 2013).

SMILES strings stand for the structures. Where “and” joins values, the source holds several entries; their conditions need not be identical. Equal values may be shown once. Read-outs that look alike come from different tables or passages of the source.

Series [1] concerns bone marrow progenitor cells. Briefly: Bone marrow progenitor cell clonogenic assay (CFU-GM), human. Here is the method: A clonogenic assay was performed using bone marrow progenitor cells derived from the blood of mice and humans.
In series [2] the test system is MRP1 over expressing H69AR line. Briefly: Efflux pump drug resistance, antiproliferation assay, MRP1 over expressing line. The class given is cell-based. Conditions: ratio of IC50s, MRP1 over expressing versus parent line; for 5d H69AR/H69: 5 days; for 3d H69AR/H69: 3 days. Here is the method:
(§1) The compounds were screened for cytotoxicity using human non small cell lung cancer cell line H460. […]
(§2) Cellular drug resistance was determined using the antiproliferation assay described above.

Series [3] concerns DX5, which over expresses the MDR 1 efflux pump. In words: Efflux pump drug resistance, antiproliferation assay, MDR 1 over expressing line. Format: cell-based. To be noted: ratio of IC50s, MDR 1 over expressing versus parent line; for 3d DX5/MESSA: 3 days; for 5d DX5/MESSA: 5 days. Here is the method: as §1, §2
Setting [4] is: Mouse CFU-GM IC50 / Human CFU-GM IC50.
The mark [5] stands for this setting: Mouse CFU-GM IC90 / Human CFU-GM IC90.

As to `CC[C@@]1(O)C(=O)OCc2c1cc1n(c2=O)Cc2cc3c(N)cccc3nc2-1` [9-amino camptothecin, reference compound], the Ratio is 75 in series [1] (setting [4]) and 88 in series [1] (setting [5]).
Regarding `CCc1c2c(nc3ccc(O)cc13)-c1cc3c(c(=O)n1C2)COC(=O)[C@]3(O)CC` [SN-38, reference compound], the Ratio in series [1] is 85 and 100.
For the compound `CC[C@@]1(O)C(=O)OCc2c1c([N+](=O)[O-])c1n(c2=O)Cc2cc3ccccc3nc2-1` [TH1317], the “5d H69AR/H69” value in series [2] is 1.4116.
Turning to `CC[C@@]1(O)C(=O)OCc2c1c(N)c1n(c2=O)Cc2cc3ccccc3nc2-1` [TH1320], in series [3], the “3d DX5/MESSA” value was 1.034. Also, the values for the Ratio in series [1] (setting [4]) and in series [1] (setting [5]) were 6 and 4, respectively.
Take `CCc1c2c(nc3ccccc13)-c1c([N+](=O)[O-])c3c(c(=O)n1C2)COC(=O)[C@]3(O)CC` [TH1332]: in series [3], the “3d DX5/MESSA” value was 1.2 and the “5d DX5/MESSA” value came to 1.17. The “5d H69AR/H69” value in series [2] is reported as 2.0633.
`CC[C@@]1(O)C(=O)OCc2c1c([N+](=O)[O-])c1n(c2=O)Cc2c-1nc1ccccc1c2CO` [TH1333]: in series [3], the “3d DX5/MESSA” value was 2.3.
`CCc1c2c(nc3ccccc13)-c1c(N)c3c(c(=O)n1C2)COC(=O)[C@]3(O)CC` [TH1338]: the “3d DX5/MESSA” value in series [3] is recorded as 2.791. Moreover, the Ratio in series [1] (setting [4]) turned out to be 6; in series [1] (setting [5]), 7. Also, the “3d H69AR/H69” value in series [2] is 2.1818.
Take `CC[C@@]1(O)C(=O)OCc2c1c(N)c1n(c2=O)Cc2c-1nc1ccccc1c2C` [TH1339]: in series [3], the “3d DX5/MESSA” value turned out to be 0.788. The results for the Ratio in series [1] (setting [4]) and in series [1] (setting [5]) were 56 and 22, respectively. In addition, the “3d H69AR/H69” value in series [2] was 2.1538.
For `CC[C@@]1(O)C(=O)OCc2c1c(N)c1n(c2=O)Cc2cc3c(N)cccc3nc2-1` [TH1386] the same measures were 0.538, 23, 17 and 1.383.
Turning to `CCc1c2c(nc3ccccc13)-c1c(NC=O)c3c(c(=O)n1C2)COC(=O)[C@]3(O)CC` [TH1408], the “3d DX5/MESSA” value in series [3] was 0.5. For the same compound, the Ratio in series [1] (setting [4]) and in series [1] (setting [5]) was 8 throughout. In series [2], the “3d H69AR/H69” value is listed as 1.1777.
`CC[C@@]1(O)C(=O)OCc2c1c([N+](=O)[O-])c1n(c2=O)Cc2c-1nc1ccccc1c2/C=N/OC(C)(C)C` [TH1431]: the “5d DX5/MESSA” value in series [3] stood at 2.0196. Further, in series [2], the “3d H69AR/H69” value is reported as over 2.6 and the “5d H69AR/H69” value is recorded as 2.36.
As for `CC[C@@]1(O)C(=O)OCc2c1c([N+](=O)[O-])c1n(c2=O)Cc2c-1nc1ccccc1c2C` [TH1446], the “5d DX5/MESSA” value in series [3] is on record as 1.113. Further, the “5d H69AR/H69” value in series [2] was 3.1.
Take `CC[C@@]1(O)C(=O)OCc2c1c(N)c1n(c2=O)Cc2c-1nc1ccccc1c2/C=N/OC(C)(C)C` [TH1499]: the “3d DX5/MESSA” value in series [3] is 0.556. In addition, the “3d H69AR/H69” value in series [2] worked out at 2.1336.
Regarding `CC[C@@]1(O)C(=O)OCc2c1c(NC=O)c1n(c2=O)Cc2cc3ccccc3nc2-1` [TH1589], the Ratio is 8 in series [1] (setting [4]) and 9 in series [1] (setting [5]).
As for `CC[C@@]1(O)C(=O)OCc2c1cc1n(c2=O)Cc2cc3c(CN(C)C)c(O)ccc3nc2-1` [Topotecan, reference compound], in series [1], the Ratio was 16 and 14.
